Laboratory results as given in patent US20170266222A1, “MODULATION OF CHRFAM7A FOR ANTI-INFLAMMATORY THERAPIES” (THE REGENTS OF THE UNIVERSITY OF CALIFORNIA, priority 2016, published 2017).
These are yes or no findings as the source states them, for the method shown. Some results given as binding are weak or reduced against the parent protein; the word gives no strength.

By UniProt entry, the sequences of proteins in these tests, tags left out. Residues count along the entry.
UniProt P36544, residues 23-502: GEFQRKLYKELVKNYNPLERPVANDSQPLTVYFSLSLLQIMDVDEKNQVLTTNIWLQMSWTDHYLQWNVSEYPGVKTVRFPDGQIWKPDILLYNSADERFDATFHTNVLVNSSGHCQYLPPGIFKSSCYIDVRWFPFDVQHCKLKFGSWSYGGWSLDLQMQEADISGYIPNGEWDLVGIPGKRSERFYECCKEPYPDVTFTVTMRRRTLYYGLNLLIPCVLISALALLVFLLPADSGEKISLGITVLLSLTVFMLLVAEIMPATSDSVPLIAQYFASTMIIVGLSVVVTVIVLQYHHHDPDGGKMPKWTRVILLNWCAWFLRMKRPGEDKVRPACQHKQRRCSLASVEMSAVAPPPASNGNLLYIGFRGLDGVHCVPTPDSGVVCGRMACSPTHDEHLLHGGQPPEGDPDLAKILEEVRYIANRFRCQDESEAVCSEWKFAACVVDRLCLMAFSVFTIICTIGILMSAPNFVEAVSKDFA
UniProt P60615, residues 22-95: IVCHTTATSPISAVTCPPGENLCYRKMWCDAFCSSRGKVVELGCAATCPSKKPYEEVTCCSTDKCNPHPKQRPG

Legend:
[1] = molecular target: α7-nicotinic acetylcholine receptor (α7nAChR) encoded by CHRNA7, on human THP1 cells (human) (UniProt P36544); assay: flow cytometry, labeled bungarotoxin on CHRFAM7A-transduced THP1 cells
[2] = molecular target: α7-nicotinic acetylcholine receptor (α7nAChR) encoded by CHRNA7, on human THP1 cells (human) (UniProt P36544); assay: flow cytometry, labeled bungarotoxin on parental THP1 cells (FIG. 4C)
[3] = molecular target: α7-nicotinic acetylcholine receptor (α7nAChR) encoded by CHRNA7, on human THP1 cells (human) (UniProt P36544); assay: flow cytometry, labeled bungarotoxin on fixed parental THP1 cells

Measured: binding

labeled bungarotoxin (from UniProt P60615 22-95) (ligand)
binds: all assays above
